These are yes or no findings as the source states them, for the method shown. For some assays here: In cells and extracts the contact can be indirect. Some binding calls cover weakened binding; strength is not graded here.
T1: Signal peptide peptidase (human (endogenous in HEK293)) (UniProt Q8TCT9)
T1 sequence: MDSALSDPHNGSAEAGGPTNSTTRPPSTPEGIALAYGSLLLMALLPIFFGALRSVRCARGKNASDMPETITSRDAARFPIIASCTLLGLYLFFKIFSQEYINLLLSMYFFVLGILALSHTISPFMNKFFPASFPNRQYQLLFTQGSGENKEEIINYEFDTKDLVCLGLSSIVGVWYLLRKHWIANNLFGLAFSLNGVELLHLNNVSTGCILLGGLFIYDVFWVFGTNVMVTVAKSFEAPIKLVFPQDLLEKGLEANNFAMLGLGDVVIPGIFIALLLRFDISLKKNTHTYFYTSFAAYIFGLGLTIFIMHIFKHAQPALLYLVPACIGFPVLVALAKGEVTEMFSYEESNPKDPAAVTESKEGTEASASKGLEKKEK

The chains behind the UniProt entries cited, without tags or fusion partners. Where a name states a change or a piece, a line headed by the entry shows the natural chain unless it says otherwise.
UniProt Q00341: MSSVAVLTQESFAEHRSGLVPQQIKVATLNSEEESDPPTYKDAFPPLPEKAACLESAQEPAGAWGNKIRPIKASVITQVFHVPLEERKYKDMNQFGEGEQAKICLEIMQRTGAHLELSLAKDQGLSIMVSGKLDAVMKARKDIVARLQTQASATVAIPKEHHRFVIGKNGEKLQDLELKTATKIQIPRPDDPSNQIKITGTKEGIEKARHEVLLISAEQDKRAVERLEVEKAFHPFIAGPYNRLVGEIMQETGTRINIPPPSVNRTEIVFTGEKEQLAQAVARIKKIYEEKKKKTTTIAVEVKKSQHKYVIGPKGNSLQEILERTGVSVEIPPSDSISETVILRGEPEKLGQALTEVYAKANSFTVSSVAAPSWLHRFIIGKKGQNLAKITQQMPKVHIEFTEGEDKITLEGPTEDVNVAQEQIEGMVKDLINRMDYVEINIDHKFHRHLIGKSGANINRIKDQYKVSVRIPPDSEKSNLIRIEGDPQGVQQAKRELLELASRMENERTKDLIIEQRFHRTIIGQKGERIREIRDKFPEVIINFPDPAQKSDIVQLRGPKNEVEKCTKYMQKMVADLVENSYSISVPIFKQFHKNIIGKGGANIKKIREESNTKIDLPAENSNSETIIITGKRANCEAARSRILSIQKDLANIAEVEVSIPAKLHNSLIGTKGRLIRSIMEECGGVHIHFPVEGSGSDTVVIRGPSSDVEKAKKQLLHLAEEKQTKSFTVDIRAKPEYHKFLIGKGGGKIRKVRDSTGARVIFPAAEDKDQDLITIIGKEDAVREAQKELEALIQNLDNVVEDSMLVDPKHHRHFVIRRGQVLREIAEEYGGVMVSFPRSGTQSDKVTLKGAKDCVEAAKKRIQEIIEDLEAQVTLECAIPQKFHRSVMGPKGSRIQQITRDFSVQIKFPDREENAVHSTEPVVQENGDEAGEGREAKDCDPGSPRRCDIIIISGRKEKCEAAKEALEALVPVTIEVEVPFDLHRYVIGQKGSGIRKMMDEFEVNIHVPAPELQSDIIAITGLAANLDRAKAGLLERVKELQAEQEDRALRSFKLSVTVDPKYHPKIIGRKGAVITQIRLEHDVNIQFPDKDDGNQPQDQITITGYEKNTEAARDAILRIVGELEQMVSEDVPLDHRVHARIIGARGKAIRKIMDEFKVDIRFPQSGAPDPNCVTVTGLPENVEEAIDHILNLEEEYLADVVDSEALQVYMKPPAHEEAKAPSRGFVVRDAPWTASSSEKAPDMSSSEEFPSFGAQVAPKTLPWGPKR

T2: SPPL2b (human (endogenous in HEK293)) (UniProt Q8TCT7)
T2 sequence: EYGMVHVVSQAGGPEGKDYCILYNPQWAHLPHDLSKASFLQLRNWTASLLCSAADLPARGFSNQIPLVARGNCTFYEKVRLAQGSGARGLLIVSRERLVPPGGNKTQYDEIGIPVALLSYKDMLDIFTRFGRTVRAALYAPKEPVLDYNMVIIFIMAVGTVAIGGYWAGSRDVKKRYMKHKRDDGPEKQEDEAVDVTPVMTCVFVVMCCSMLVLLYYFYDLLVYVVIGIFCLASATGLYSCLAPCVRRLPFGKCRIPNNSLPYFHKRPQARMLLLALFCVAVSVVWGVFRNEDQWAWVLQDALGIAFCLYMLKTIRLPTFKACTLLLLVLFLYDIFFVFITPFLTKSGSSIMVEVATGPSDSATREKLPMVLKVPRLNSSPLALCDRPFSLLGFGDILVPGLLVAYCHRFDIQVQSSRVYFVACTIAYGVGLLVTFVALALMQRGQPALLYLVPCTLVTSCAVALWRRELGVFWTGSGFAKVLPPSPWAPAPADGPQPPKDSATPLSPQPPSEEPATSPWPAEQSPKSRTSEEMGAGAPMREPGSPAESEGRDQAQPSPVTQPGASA

T3: Signal peptide peptidase (human (endogenous in HEK293)), Q8TCT9
T3 chain: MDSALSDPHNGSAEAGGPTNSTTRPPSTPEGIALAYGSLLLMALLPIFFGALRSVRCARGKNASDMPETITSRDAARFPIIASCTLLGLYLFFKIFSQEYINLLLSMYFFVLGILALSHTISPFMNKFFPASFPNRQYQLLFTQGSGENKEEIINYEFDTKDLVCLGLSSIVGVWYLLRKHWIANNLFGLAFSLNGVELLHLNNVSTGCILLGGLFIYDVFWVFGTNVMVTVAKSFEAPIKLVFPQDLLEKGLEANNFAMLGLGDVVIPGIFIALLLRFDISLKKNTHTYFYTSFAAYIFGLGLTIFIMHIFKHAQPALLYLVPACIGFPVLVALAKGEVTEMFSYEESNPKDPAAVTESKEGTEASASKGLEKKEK


Assays:
[1] = biological target: T1, Signal peptide peptidase (human (endogenous in HEK293)); test: co-IP; HEK293 or HEK293 vigilin-FLAG lysate solubilized in HEPES buffer with 0.5% DDM; antibodies against SPP-CT, SPPL2b, FLAG or vigilin, overnight at 4°C; five washes with 0.02% DDM; controls pre-immune rabbit serum or anti-HA; Western blot
[2] = biological target: T2, SPPL2b (human (endogenous in HEK293)); test: as above
[3] = biological target: T1, Signal peptide peptidase (human (endogenous in HEK293)); test: native gel or EMSA; BN-PAGE of HEK293 or HEK293 vigilin-FLAG lysates solubilized in 0.5% DDM, Western blot for SPP and vigilin (or FLAG); second dimension SDS-PAGE for SPP
[4] = biological target: T3, Signal peptide peptidase (human …); test: SDS-PAGE and Western blot of affinity-purified SPP; eluate of the anti-SPP-CT affinity purification from HEK293 microsomal membranes in 0.5% DDM, resolved by SDS-PAGE, probed with anti-SPP antibody; details: remark: other sources report otherwise
[5] = biological target: T3, Signal peptide peptidase (human …); test: co-IP; HEK293 or HEK293 vigilin-FLAG lysate solubilized in HEPES buffer with 0.5% DDM; antibodies against SPP-CT, SPPL2b, FLAG or vigilin, overnight at 4°C; five washes with 0.02% DDM; controls pre-immune rabbit serum or anti-HA; Western blot; details: remark: other sources report otherwise
[6] = biological target: FLAG-tagged vigilin (human) (UniProt Q00341); test: as above

binding [1] | binding [3] | Molecule | also measured
binds | binds | FLAG-tagged vigilin (from UniProt Q00341-1 1-1268) | binding [2]: no binding
binds | binds | Vigilin (from UniProt Q00341-1 1-1268) | 
 |  | Signal peptide peptidase, Q8TCT9 1-377 (natural protein) MDSALSDPHNGSAEAGGPTNSTTRPPSTPEGIALAYGSLLLMALLPIFFGALRSVRCARGKNASDMPETITSRDAARFPIIASCTLLGLYLFFKIFSQEYINLLLSMYFFVLGILALSHTISPFMNKFFPASFPNRQYQLLFTQGSGENKEEIINYEFDTKDLVCLGLSSIVGVWYLLRKHWIANNLFGLAFSLNGVELLHLNNVSTGCILLGGLFIYDVFWVFGTNVMVTVAKSFEAPIKLVFPQDLLEKGLEANNFAMLGLGDVVIPGIFIALLLRFDISLKKNTHTYFYTSFAAYIFGLGLTIFIMHIFKHAQPALLYLVPACIGFPVLVALAKGEVTEMFSYEESNPKDPAAVTESKEGTEASASKGLEKKEK | binding [4]: binds; binding [5]: binds
 |  | Signal peptide peptidase (protein, UniProt Q8TCT9 1-377) MDSALSDPHNGSAEAGGPTNSTTRPPSTPEGIALAYGSLLLMALLPIFFGALRSVRCARGKNASDMPETITSRDAARFPIIASCTLLGLYLFFKIFSQEYINLLLSMYFFVLGILALSHTISPFMNKFFPASFPNRQYQLLFTQGSGENKEEIINYEFDTKDLVCLGLSSIVGVWYLLRKHWIANNLFGLAFSLNGVELLHLNNVSTGCILLGGLFIYDVFWVFGTNVMVTVAKSFEAPIKLVFPQDLLEKGLEANNFAMLGLGDVVIPGIFIALLLRFDISLKKNTHTYFYTSFAAYIFGLGLTIFIMHIFKHAQPALLYLVPACIGFPVLVALAKGEVTEMFSYEESNPKDPAAVTESKEGTEASASKGLEKKEK | binding [6]: binds

Source: PMC3490818
